Test results reported in US10556943B2, “HLA-DR binding peptides and their uses” (priority 2007, dated 2020).
For some assays here: Not every detail of the peptide structures is certain; ends, links or a residue may be inferred. For some assays here: At least one compound was matched to its structure with a doubt left.

Sequences of proteins named here, by UniProt entry; tags and fusion partners are left off. Residues count along the entry.
UniProt P01911, 30-266 with the stated changes: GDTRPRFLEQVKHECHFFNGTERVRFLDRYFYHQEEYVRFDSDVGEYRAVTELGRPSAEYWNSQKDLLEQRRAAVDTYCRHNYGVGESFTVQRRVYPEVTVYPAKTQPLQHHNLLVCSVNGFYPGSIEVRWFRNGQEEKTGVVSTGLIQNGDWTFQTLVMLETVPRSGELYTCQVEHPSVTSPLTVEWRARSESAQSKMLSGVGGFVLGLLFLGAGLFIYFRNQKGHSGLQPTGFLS

How the values were obtained:
short term T cell lines = experiment: IFN-γ ELISpot analysis of short term T cell lines (natural processing); format: cell-based, human; conditions: T cell lines respond to peptide and protein fragment; FIGS. 5, 6
purified HLA DRB1*0405 = biological target: T1, purified HLA DRB1*0405 (Homo sapiens, UniProt P01903+P01911, A100R/A169T/D86S/F76Y/I96L/K127E/L162R/M171V/N62H/P40V/Q125Y/R42H/S133A/S149N/S66Y/V115G/V209L/W38E); experiment: HLA-DR radioligand binding inhibition assay, DRB1*0405; conditions: read-out: IC50 to purified HLA DRB1*0405
T1 construct: MHC molecules utilized were purified from EBV transformed homozygous cell lines or single MHC allele transfected 721.221, C1R, or fibroblast lines; made in house; host or cells: EBV transformed homozygous cell lines or single MHC allele transfected 721.221, C1R, or fibroblast lines
Procedure: Fifteen distinct HLA-DR molecules were used in quantitative assays to measure the binding of peptides to solubilized HLA-DR molecules. […] Briefly, columns of inactivated Sepharose CL4B and Protein A Sepharose were used as pre-columns. HLA-DR molecules were captured by passage of lysates over LB3.1 monoclonal antibody (anti-HLA-DRA) columns. Antibody columns were washed with 10 mM Tris-HCL, pH8.0 with 1% (v/v) NP-40, followed by PBS containing 0.4% (w/v) n-octylglucoside. […] The pH was reduced to 8.0 and the eluates were concentrated by centrifugation in Centriprep 30 concentrators at 2000 rpm (Amicon, Beverly, Mass.).
Briefly, 1-10 nM of radiolabeled peptide was co-incubated for 2 days at either room temperature or 37° C. with 1 μM to 1 nM purified HLA-DR molecules in the presence of a cocktail of protease inhibitors. Assays were performed at various pH conditions, ranging from pH 4 to pH 7. […] After incubation, the percentage of HLA-DR-bound radioactivity is determined by capturing HLA-DR/peptide complexes on Optiplates (Packard Instruments, Meriden, Conn.) coated with the LB3.1 antibody and determining bound counts per minute using the TopCount microscintillation counter (Packard Instruments). […] Competitor peptides are tested in 2-4 complete, independent experiments, at concentrations ranging from 30 μg/mL to 300 pg/mL.

Compound | naturally processed and presented antigen (short term T cell lines) | IC50 (purified HLA DRB1*0405) [µM]
CC[C@H](C)[C@H](NC(=O)[C@H](CC(C)C)NC(=O)[C@@H](NC(=O)[C@@H](N)Cc1ccc(O)cc1)C(C)C)C(=O)N[C@@H](C)C(=O)N[C@@H](Cc1c[nH]cn1)C(=O)N[C@@H](CC(N)=O)C(=O)N[C@@H](CCC(N)=O)C(=O)N[C@H](C(=O)N[C@@H](CCCNC(=N)N)C(=O)N[C@@H](CCC(N)=O)C(=O)N[C@H](C(=O)N1CCC[C@H]1C(=O)N[C@@H](CC(C)C)C(=O)N[C@@H](CCC(N)=O)C(=O)O)C(C)C)C(C)C [Peptide 9019.0033] | naturally processed and presented antigens | 
H-ARNVLVKSPNGVKIT-OH [Peptide 9019.0086] |  | 10.5
